Assay results as given in patent US12060336B1, “(2E)-4-[(4-chlorophenyl)amino]-N-phenyl-2-(phenylimino)-1,3,5-dioxazepine-7-carboxamide as an eco-friendly insecticidal agent against Spodoptera littoralis (boisd.)” (King Faisal University, priority 2023, dated 2024).

Test system: Spodoptera littoralis larvae
Assay: Insecticidal leaf dip bioassay screening
Details: after 72 hours of treatment, probit (LDP-line) slope

Structure (SMILES)	Slope (2nd instar larvae)	Slope (4th instar larvae)
O=C(Nc1ccccc1)C1=CN=C(Nc2ccc(Cl)cc2)O/C(=N/c2ccccc2)O1 [Compound 2, (2E)-4-[(4-chlorophenyl)amino]-N-phenyl-2-(phenylimino)-1,3,5-dioxazepine-7-carboxamide]	0.246 ± 0.0791	0.225 ± 0.0820
CCOC(=O)NCCOc1ccc(Oc2ccccc2)cc1 [fenoxycarb, reference compound]	0.298 ± 0.0808	0.225 ± 0.0870
